# The other results are listed elsewhere or left out. Shown are side measurements of this screen, not its main read-out; they come without a call. The list favours compounds with an active or inconclusive main result. Words in brackets tell the shape of the fitted curve; partial curves, single points and poor fits give uncertain potencies.
# Assay: qHTS Assay for Lipid Storage Modulators in Drosophila S3 Cells;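 on cell number change: cells counted by Cell Tracker Red CMTPX staining in the red channel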
# Conditions: BODIPY lipid droplet fluorescence, 18-24 h; for cell number change: measured here: cell count max response, cells fed with added oleic acid
# Procedure, shortened: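 Laser-scanning cytometry quantifies lipid droplet accumulation (500–530 nm total intensity; droplet/cell object ratio) in oleic acid-fed (400 uM added) Drosophila S3 cells treated with a concentration series. 20 uM Triacsin C defined 100% inhibition.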
# [1] = measured here: lipid fluorescence (Fed channel) AC50, cells fed with added oleic acid
# [2] = measured here: cell number channel AC50, cells fed with added oleic acid
Structure (SMILES),cell number change [%],AC50 [1],AC50 [2]
Cc1occc1-c1nnc(SCC(=O)Nc2ccc(F)cc2)n1C,-30.8,"10.3 µM [falling, partial curve]",–
O=S(=O)(NCCN1CCOCC1)c1ccc(F)c(Cl)c1,25.2,–,–
Cc1cccc2sc(NC(=O)c3cc(S(=O)(=O)N(C)C)ccc3N3CCCC3)nc12,13.5,–,–
COc1ccc(CC(=O)NNC(=O)c2cccnc2)cc1OC,-24.8,"6.51 µM [falling, single point]","2.59 µM [falling, single point]"
N#CCSc1nnc(COc2ccc3ccccc3c2)o1,86.9,"16.4 µM [rising, partial curve]","16.4 µM [rising, partial curve]"
Cc1sc2cc3c(c(C(=O)c4ccccc4)[n+]2c1C)-c1cccc2cccc-3c12,-59.8,"2.31 µM [falling, full curve]","11.6 µM [falling, partial curve]"
O=C(CCn1c(=O)c2cccn2c2cccnc21)NCc1cccc(Cl)c1,-21.1,"1.64 µM [falling, partial curve]",–
Cc1ccc(S(=O)(=O)N2CCOCC2)cc1-c1n[nH]c(=S)n1-c1ccccc1,-6.25,"0.0731 µM [falling, partial curve, poor fit]",–
Cc1c(N=Nc2c(-c3ccc([N+](=O)[O-])cc3)[nH]n(C(N)=S)c2=O)cccc1[N+](=O)[O-],22.5,"4.61 µM [falling, partial curve]",–
Cc1ccc(NC(=O)c2nnn(CC(=O)Nc3ccc4c(c3)OCO4)c2N)cc1C,13.1,–,–
Cc1cc(Cl)ccc1OCCCC(=O)N/N=C/c1cccc([N+](=O)[O-])c1,39.3,"5.8 µM [rising, partial curve]","10.3 µM [rising, partial curve]"
Cc1ccc(N(CC(=O)NC2CC2)S(=O)(=O)c2ccccc2)c(C)c1,-11.4,"0.0651 µM [rising, full curve, poor fit]",–
CN(C)S(=O)(=O)c1ccc(S(=O)(=O)Nc2ccc3c(c2)oc2ccccc23)cc1,–,"0.82 µM [rising, full curve]",–
O=C(COC(=O)c1cccnc1Cl)Nc1ncc(Cl)cc1Cl,20.6,"2.31 µM [rising, full curve, poor fit]",–
CC(=O)C1=C(C)Nc2cc(C(F)(F)F)ccc2S1,-6.35,"0.13 µM [falling, full curve, poor fit]",–
COc1ccc(NC(=O)C(=O)NCCC2CCCCN2S(=O)(=O)c2ccccc2)cc1 (stereo unspecified),0.9,"23.1 µM [falling, single point]",–
CC(C)/C=C1\CCCCC1N(C)C(=O)NC(C)C (stereo unspecified),-10.8,–,"0.461 µM [rising, single point]"
O=C1N=C(c2ccccc2)S/C1=C\c1cccs1,–,"6.51 µM [rising, single point]","2.59 µM [rising, single point]"
O=C(O)c1cc(-c2ccc(/C=C3\NC(=O)N(c4ccc(Cl)cc4)C3=O)o2)ccc1Cl,-49.6,"32.6 µM [falling, partial curve, poor fit]","29.1 µM [falling, single point]"

# Two of the compounds above, with bars between the fields:
Structure (SMILES) | cell number change [%] | AC50 [1] | AC50 [2]
O=S(=O)(NCCN1CCOCC1)c1ccc(F)c(Cl)c1 | 25.2 | – | –
O=C(COC(=O)c1cccnc1Cl)Nc1ncc(Cl)cc1Cl | 20.6 | 2.31 µM [rising, full curve, poor fit] | –

# More records.

Structure (SMILES),cell number change [%],AC50 [1],AC50 [2]
COc1ccc(/C=C2\Sc3ccc(C(=O)NC4CC4)cc3N(C)C2=O)cc1OC,–,"4.11 µM [falling, partial curve]","4.11 µM [falling, single point]"
CCOCc1c(C(=O)OCC(=O)NCc2ccc(F)cc2)oc2ccccc12,-40.6,–,"0.0058 µM [falling, full curve, poor fit]"
CC(C)(C)c1ccc(C(=O)N2CCNC(=O)C2CC(=O)Nc2ccc(F)cc2)cc1 (stereo unspecified),11.8,"0.731 µM [rising, single point]",–
O=C(CN1C(=O)NC2(CCCC2)C1=O)NCCN1C(=O)S/C(=C\c2ccccc2F)C1=O,91,–,"0.00517 µM [rising, full curve, poor fit]"
c1ccc2nc3[nH]cnc3nc2c1,2.09,–,–
CCOc1ccccc1N(CC(=O)N1CCOCC1)S(=O)(=O)c1ccc(SC)cc1,-90,–,"23.1 µM [falling, partial curve]"
Oc1cccc2ccc(/C=C/c3ccccc3Cl)nc12,62.4,–,"0.58 µM [falling, single point]"
CC1CCN(Cc2c(C(=O)N3CCc4ccccc4C3)nc3ccc(Cl)cn23)CC1,35.4,–,"29.1 µM [rising, single point]"
CCCSc1nsc(NC(=O)Nc2ccc(F)cc2F)n1,-31.5,"5.17 µM [falling, full curve]","8.2 µM [falling, partial curve, poor fit]"
Cc1ccc(N(C(=O)c2ccc(Br)o2)C2C=CS(=O)(=O)C2)cc1 (stereo unspecified),-8.98,"32.6 µM [rising, partial curve, poor fit]",–
CCCCNC(=O)OCCSCCS(=O)(=O)c1ccc(Cl)cc1,7.14,"0.103 µM [falling, full curve, poor fit]",–
O=C(Nc1cc(C(F)(F)F)ccc1-n1cncn1)C1CC1,4.5,–,–
Cc1noc(C)c1CS(=O)(=O)c1ccc(Br)cc1,22.6,"0.58 µM [rising, single point]",–
COC(=O)N/N=C\c1ccc(-c2cc(Cl)c(Cl)cc2Cl)o1,10.5,"0.651 µM [rising, full curve]",–
CCC(=O)Nc1cccc(-c2nnc(-c3cccc(NC(=O)CC)c3)o2)c1,11,"1.64 µM [rising, partial curve]","1.3 µM [rising, partial curve]"
COc1ccc(S(N)(=O)=O)cc1C(=O)NC1CCCc2ccccc21 (stereo unspecified),-24.6,"29.1 µM [rising, single point]",–
CCOc1ccc(CCNC(=O)c2cccc(S(=O)(=O)N3CCOCC3)c2)cc1OCC,2.2,"29.1 µM [falling, single point]",–
OCCN(Cc1ccccc1)CC1CCCCC1,-2.92,"2.06 µM [falling, partial curve, poor fit]","2.31 µM [rising, single point]"

# — PubChem BioAssay AID2685 (National Center for Advancing Translational Sciences (NCATS), 2010)
